Measured values: patent publication US9023850B2, “Nematocidal sulfonamides” (E I du Pont de Nemours and Company, priority 2010, dated 2015)
Some results were stated once for a whole list of compounds, not compound by compound.

Test system: southern root-knot nematode (Meloidogyne incognita)
Assay: Test A: control of southern root-knot nematode, root gall formation on cucumber seedlings in soil
Format: in vivo
Conditions: 250 ppm active ingredient applied to soil, about 250 J2 larvae, 27° C., 7 days

Structure (SMILES) | reduction in root galling, compared to solvent-treated controls (plant protection) [%]
O=C(NS(=O)(=O)c1cc(C(F)(F)F)ccc1Cl)c1cn2cc(C(F)(F)F)cnc2n1 [Compound 6, N-[[2-chloro-5-(trifluoromethyl)phenyl]sulfonyl]-6-(trifluoromethyl)imidazo[1,2-a]pyrimidine-2-carboxamide] | ≥ 50
COc1ccc(Cl)c(S(=O)(=O)NC(=O)c2cn3cc(C(F)(F)F)ncc3n2)c1 [Compound 1, N-[(2-chloro-5-methoxyphenyl)sulfonyl]-6-(trifluoromethyl)imidazo[1,2-a]pyrazine-2-carboxamide] | ≥ 50
O=C(NS(=O)(=O)c1cc(C(F)(F)F)ccc1Cl)c1cn2cc(Br)cnc2n1 [Compound 4, 6-bromo-N-[[2-chloro-5-(trifluoromethyl)phenyl]sulfonyl]imidazo[1,2-a]pyrimidine-2-carboxamide] | ≥ 50
